The values that follow are results of earlier work, collected in PMC5499624 (Biomolecules & Therapeutics, 2017).

The conditions of this data set: ref Wu et al., 1997; cited from earlier work.

Take `CN1CC[C@]23c4c5ccc(O)c4O[C@H]2[C@@H](O)C=C[C@H]3[C@H]1C5` [morphine]: the Brain uptake is reported as 0.0810 ± 0.0005 %ID/g.
